# Source: PubChem BioAssay AID1671190 (National Center for Advancing Translational Sciences (NCATS), 2021)
# The chains behind the UniProt entries cited, without tags or fusion partners. Where a name states a change or a piece, a line headed by the entry shows the natural chain unless it says otherwise.
# UniProt P18054: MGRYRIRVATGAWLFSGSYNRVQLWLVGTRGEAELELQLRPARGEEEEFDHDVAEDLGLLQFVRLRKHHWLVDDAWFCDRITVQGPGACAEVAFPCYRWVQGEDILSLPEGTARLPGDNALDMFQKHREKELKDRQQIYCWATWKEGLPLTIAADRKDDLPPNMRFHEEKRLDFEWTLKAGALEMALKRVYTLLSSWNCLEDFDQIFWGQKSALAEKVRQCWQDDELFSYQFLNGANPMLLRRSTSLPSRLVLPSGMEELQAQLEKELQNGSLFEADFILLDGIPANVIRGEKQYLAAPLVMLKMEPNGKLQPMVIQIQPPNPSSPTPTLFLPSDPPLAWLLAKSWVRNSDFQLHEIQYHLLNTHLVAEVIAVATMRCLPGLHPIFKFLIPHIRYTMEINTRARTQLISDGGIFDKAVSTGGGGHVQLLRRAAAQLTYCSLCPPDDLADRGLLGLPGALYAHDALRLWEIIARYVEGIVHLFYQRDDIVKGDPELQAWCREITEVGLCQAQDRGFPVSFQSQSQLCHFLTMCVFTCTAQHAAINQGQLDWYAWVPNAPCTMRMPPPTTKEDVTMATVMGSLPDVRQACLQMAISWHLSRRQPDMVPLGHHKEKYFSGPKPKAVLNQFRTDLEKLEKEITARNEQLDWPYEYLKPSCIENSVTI
# The whole screen tested about 580,000 compounds, of which about 6,100 (1.1%) were called active. The inconclusive results got no clear call from the source; some entries with a clear call stand among them for comparison. The call rests on the fitted dose curve; in most records, active means well fitted inhibition curve with a large enough effect; inconclusive means small, poorly fitted or top-dose-only effect, or another doubt; inactive means no such curve, though single readings can be large or run the other way. Potencies of inconclusive entries are doubtful fits and often do not repeat.
# Biological target: Polyunsaturated fatty acid lipoxygenase ALOX12 (Homo sapiens) (UniProt P18054)
# Experiment: Primary qHTS assay for inhibitors of human arachidonate 12S-lipoxygenase (ALOX12): Round 2
# Details: purified 12hLO, xylenol orange hydroperoxide absorbance; series mostly up to 108 µM
# Outline: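 Hydroperoxide product was detected by ferrous iron/xylenol orange as the 573 to 405 nm absorbance ratio. Arachidonic acid at 40 uM (final) was turned over for 30 min at room temperature by 150 nM human 12hLO, pH 7.0 Hepes buffer, after 15 min compound preincubation.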
# Potency means the concentration at half of the fitted maximal effect.
row,Structure (SMILES),Potency
1,CCc1nnc(NS(=O)(=O)c2ccc(N=Cc3c(O)n(-c4ccccc4)c(=O)[nH]c3=O)cc2)s1,"inconclusive: 50.1 µM [inhibitor, partial curve, poor fit]"
2,COc1ccc(-n2c(/C=C/c3cccc(F)c3)nc3ccccc3c2=O)cc1Cl,inactive
3,COc1ccccc1N1CCN(Cc2ccc(Cl)cc2Cl)CC1,"inconclusive: 0.708 µM [inhibitor, full curve, poor fit]"
4,NCCc1ccccn1,"inconclusive: 28.2 µM [inhibitor, single point]"
5,O=C1CC(CO)CN1 (stereo not drawn),inactive
6,O=C1NC(=O)C2(Cc3ccccc3N3CCCC32)C(=O)N1 (stereo not drawn),"inconclusive: 5.01 µM [inhibitor, full curve, poor fit]"
7,FC(F)(F)c1cccc(C2NCc3ccccc3-n3cccc32)c1 (stereo not drawn),"inconclusive: 39.8 µM [inhibitor, partial curve, poor fit]"
8,CCOc1cc(C=C2C(=O)NC(=O)NC2=O)cc([N+](=O)[O-])c1O,"inconclusive: 112 µM [inhibitor, partial curve, poor fit]"
9,CCS(=O)(=O)NC(C)c1nnc2n1-c1ccc(Br)cc1C(c1ccccc1Cl)=NC2 (stereo not drawn),"inconclusive: 7.08 µM [inhibitor, partial curve, poor fit]"
10,CN1CCN(CCC(=O)OC2CC3CCC(C2)N3C)CC1 (stereo not drawn),"inconclusive: 35.5 µM [inhibitor, single point]"
11,O=C1Nc2ccccc2Sc2ccccc21,"inconclusive: 89.1 µM [inhibitor, partial curve, poor fit]"
12,CC(=O)c1c(O)n(-c2cccc(Cl)c2)c(=O)[nH]c1=O (tested in a mixture with another compound),"inconclusive: 112 µM [inhibitor, single point]"
13,Cc1ccc(OCCOc2cccc(C=C3C(=O)NC(=O)NC3=O)c2)c(C)c1,"inconclusive: 35.5 µM [inhibitor, partial curve, poor fit]"
14,Cc1cc(N2C(=O)CC(N3CCC(n4c(=O)[nH]c5ccccc54)CC3)C2=O)no1 (stereo not drawn),"inconclusive: 31.6 µM [inhibitor, single point]"
15,CCCCCCn1c(N)c(C(=O)NCCN2CCOCC2)c2nc3ccccc3nc21,inactive
16,COC(=O)C1=C(c2cc3ccccc3s2)C[C@@H]2CC[C@H]1N2C(=O)NCCCOC(C)C,"inconclusive: 112 µM [inhibitor, single point]"
17,COc1cccc(C2SCC(=O)Nc3[nH]ncc32)c1 (stereo not drawn),"inconclusive: 35.5 µM [inhibitor, single point]"
18,CC(N)C(=O)NC1C2C(=C(O)CC(O)C2O)C(=O)OC1(C)C(Cl)Cl (stereo not drawn),"inconclusive: 31.6 µM [inhibitor, partial curve, poor fit]"
19,O=C1CCCN1CC#CCN1CCCC1,"inconclusive: 31.6 µM [inhibitor, partial curve, poor fit]"
20,CCOc1ccc(CN(CCc2ccc3c(c2)OCO3)Cc2ccc(C)cc2)cc1,"inconclusive: 10 µM [inhibitor, full curve]"
21,C[N+](C)(C)CC(F)([N+](=O)[O-])[N+](=O)[O-],"inconclusive: 15.8 µM [inhibitor, full curve, poor fit]"
22,COc1cc(O)cc2c1cc([N+](=O)[O-])c1c(C(=O)O)cc3c(c12)OCO3,"inconclusive: 79.4 µM [inhibitor, partial curve, poor fit]"

# Quoted from the listing:
# Potency, CCS(=O)(=O)NC(C)c1nnc2n1-c1ccc(Br)cc1C(c1ccccc1Cl)=NC2 (stereo not drawn) is entered as inconclusive: 7.08 µM [inhibitor, partial curve, poor fit]
# Potency, COc1ccc(-n2c(/C=C/c3cccc(F)c3)nc3ccccc3c2=O)cc1Cl is entered as inactive
# Potency, COc1cccc(C2SCC(=O)Nc3[nH]ncc32)c1 (stereo not drawn) is entered as inconclusive: 35.5 µM [inhibitor, single point]
# Potency, FC(F)(F)c1cccc(C2NCc3ccccc3-n3cccc32)c1 (stereo not drawn) is entered as inconclusive: 39.8 µM [inhibitor, partial curve, poor fit]

# (continued)

row,Structure (SMILES),Potency
1,O=C(Cc1ccccc1)OCCN1CCOCC1,inactive
2,Cc1cc(NCCN)nc2ccccc12,"inconclusive: 35.5 µM [inhibitor, partial curve, poor fit]"
3,CCn1c(C)c(C(=O)NCc2cccnc2)c2cc(OC)ccc21,inactive
4,CC(C)CC(=O)N1CCC2(CC1)NCc1ccccc1-n1ccnc12,inactive
5,COc1ccc(-n2c(O)c(/C=C3\C=Nc4ccc(Br)cc43)c(=O)[nH]c2=O)c(OC)c1,inactive
6,CC(C)c1ccc(-n2c(O)c(/C=N/NC(=O)c3ccccc3O)c(=O)[nH]c2=S)cc1,active: 39.8 µM
7,CC(C)n1c(=O)c(C=Nc2ccc(Cl)cc2)c(O)n(Cc2ccco2)c1=O,inactive
8,Cc1cccc(-n2nc(C)c3c2NC(=O)CSC3c2ccccc2Cl)c1 (stereo not drawn),"inconclusive: 141 µM [inhibitor, partial curve, poor fit]"
9,Cc1cc(C)nc(NC2=NCCS2)n1,"inconclusive: 79.4 µM [inhibitor, partial curve, poor fit]"
10,CCCS(=O)(=O)N1C[C@@H]2C[C@H](C1)c1ccc(-c3ccc4ccccc4c3)c(=O)n1C2,"inconclusive: 35.5 µM [inhibitor, full curve]"
11,Cc1cc(C(=O)CS(=O)(=O)c2ccccc2)cc(C)c1OC(=O)N(C)C,inactive
12,O=C1OC(c2ccc(Br)cc2)=N/C1=C\N1CC2CC(C1)c1cccc(=O)n1C2 (stereo not drawn),inactive
13,Cc1c(N=Nc2c(O)[nH]c(=S)[nH]c2=O)c(=O)n(-c2ccccc2)n1C,inactive
14,CC(C)N1C(=O)/C(=C/C=C/c2ccco2)C(=O)N(Cc2ccco2)C1=O,"inconclusive: 35.5 µM [inhibitor, partial curve, poor fit]"
15,COc1cccc(CCNCc2ccc(SC)cc2)c1,"inconclusive: 1.58 µM [inhibitor, full curve]"
16,CN(C(=O)Oc1cccc2ccccc12)C1C=CCC1 (stereo not drawn),"inconclusive: 79.4 µM [inhibitor, partial curve, poor fit]"
17,CCC1CN(C)CCC1(OC(=O)c1ccccc1)c1ccccc1 (stereo not drawn),"inconclusive: 79.4 µM [inhibitor, single point]"
18,CCN1CCCNCC12CCOCC2,"inconclusive: 3.16 µM [inhibitor, full curve]"
19,CN1CCN(C(=O)Cc2c[nH]c3ncc(-c4ccsc4)cc23)CC1,inactive
20,C=CCn1c(O)c(/C(C)=N/N2CCN(C)CC2)c(=O)[nH]c1=O,"inconclusive: 89.1 µM [inhibitor, partial curve, poor fit]"
21,C=C1C(=O)O[C@H]2[C@H]1[C@H](OC(=O)CC(=O)O[C@@H]1C[C@@H](C)[C@@H]3C=CC(=O)[C@@]3(C)[C@H]3OC(=O)C(=C)[C@H]13)C[C@@H](C)[C@H]1C=CC(=O)[C@]12C,"inconclusive: 22.4 µM [inhibitor, partial curve, poor fit]"
